In PMC9775310, “Anticancer, Antimicrobial, and Antioxidant Activities of Organodiselenide-Tethered Methyl Anthranilates” (Biomolecules, 2022):

Tests used:
[1] = test system: MCF-7 cells; assay: MTT assay, antiproliferative activity, MCF-7 breast carcinoma cells; format: cell-based; conditions: therapeutic index, WI38 vs MCF-7
Method: (§1) The anticancer activity of the OSe was performed using the MTT assay against liver (HepG2) and breast (MCF-7) carcinoma cells, as well as normal WI-38 cells following the reported method. Experimental details can be found in the Supplementary Materials Section S1.
(§2) Accordingly, the anticancer properties of the OSe hybrids were assessed against two cancer cell lines, i.e., HepG2 and MCF-7 cells. Furthermore, their corresponding cytotoxicity was also estimated against the immortalized lung WI-38 fibroblasts employing the MTT assay. The Adriamycin cancer drug was used as the positive control.
(§3) 1.1. The biological assays
(§4) 1.1.1. The anticancer activity
(§5) The breast adenocarcinoma (MCF-7), Hepatocellular carcinoma (HEPG-2), and normal fibroblast (WI-38) cells were obtained from ATCC via Holding company for biological products and vaccines (VACSERA), Cairo, Egypt. The reagents […] medium, MTT, DMSO, and fetal bovine serum was obtained from Sigma Aldrich. Dulbecco’s modified Eagle’s medium was used as the culture medium for the cells, and the cytotoxicity was evaluated using the reported MTT assay. Doxorubicin was used as the positive reference, and the IC50 values were obtained from the corresponding dose-response curve.
(§6) This colorimetric assay is based on converting the yellow tetrazolium bromide (MTT) to a purple formazan derivative by mitochondrial succinate dehydrogenase in viable cells. Cell lines were cultured in […] medium with 10% fetal bovine serum. Antibiotics added were 100 units/ml penicillin and 100µg/ml streptomycin at 37 C in a 5% Co2 incubator. The cell lines were seeded in a 96-well plate at a density of 1.0x10^4 cells/well. at 37 C for 48 h under 5% […]
Finally, dimethyl sulfoxide (DMSO) in the volume of 100 µl is added to each well to dissolve the purple formazan formed. […]

[2] = test system: HepG2 cells; assay: MTT assay, antiproliferative activity, HepG2 liver carcinoma cells; format: cell-based; conditions: therapeutic index, WI38 vs HepG2
Method: as §1
as §2, with “control. The concentration inhibition, 50%, needed to kill half of the cells (IC50) was estimated from (concentration-response plots) and tabulated in Table 1.” for “control.”
as §3, §4, §5, §6
Finally, dimethyl sulfoxide (DMSO) in the volume of 100 µl is added to each well to dissolve the purple formazan formed. The colorimetric assay is measured and recorded at an absorbance of 570 nm using a plate reader (EXL 800, USA). […]

| SMILES | MCF7 TI (IC50 WI38 / IC50 MCF-7) [1] | HepG2 TI (IC50 WI38 / IC50 HepG2) [2] |
| --- | --- | --- |
| COc1cccc2c1C(=O)c1c(O)c3c(c(O)c1C2=O)C[C@@](O)(C(=O)CO)C[C@@H]3O[C@H]1C[C@H](N)[C@H](O)[C@H](C)O1 [Adriamycin, reference compound] | 1.6 | 1.5 |
| COC(=O)c1cc([Se]C#N)ccc1N [Compound 4, Methyl 2-amino-5-selenocyanatobenzoate] | 2.3 | 4.8 |
| COC(=O)c1cc([Se][Se]c2ccc(N)c(C(=O)OC)c2)ccc1N [Compound 5, dimethyl 5,5′-diselanediylbis(2-aminobenzoate)] | 3.6 | 5 |
| CCOC(=O)C(C#N)=NNc1ccc([Se][Se]c2ccc(NN=C(C#N)C(=O)OCC)c(C(=O)OC)c2)cc1C(=O)OC [Compound 6, dimethyl 5,5′-diselanediylbis(2-(2-(1-cyano-2-ethoxy-2-oxoethylidene) hydrazinyl) benzoate)] | 2.7 | 2.6 |
| COC(=O)c1cc([Se]C)ccc1N [Compound 14, methyl 2-amino-5-(methylselanyl) benzoate] | 11 | 17 |
| COC(=O)c1cc([Se]Cc2ccccc2)ccc1N [Compound 15, methyl 2-amino-5-(benzylselanyl) benzoate] | 2 | 3.9 |
| COC(=O)c1cc([Se]CC(=O)Nc2ccccc2)ccc1N [Compound 16, methyl 2-amino-5-((2-oxo-2-(phenylamino)ethyl)selanyl) benzoate] | 1.4 | 2.3 |
